Experimental data reported in the supplement of paper PMC10849652.
This is one part of the list.

Sequences of proteins named here, by UniProt entry; tags and fusion partners are left off. A change or cut given only in a name is not applied to a line headed by its entry.
UniProt A8MPS7: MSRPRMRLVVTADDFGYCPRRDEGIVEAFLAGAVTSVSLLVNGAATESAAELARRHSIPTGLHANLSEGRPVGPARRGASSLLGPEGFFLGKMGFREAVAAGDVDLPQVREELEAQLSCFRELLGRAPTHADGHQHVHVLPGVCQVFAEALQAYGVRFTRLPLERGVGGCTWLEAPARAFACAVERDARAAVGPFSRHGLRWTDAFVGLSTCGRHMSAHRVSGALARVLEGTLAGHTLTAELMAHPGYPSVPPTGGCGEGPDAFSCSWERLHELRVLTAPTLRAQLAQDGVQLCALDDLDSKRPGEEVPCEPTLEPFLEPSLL
UniProt Q9NUE0: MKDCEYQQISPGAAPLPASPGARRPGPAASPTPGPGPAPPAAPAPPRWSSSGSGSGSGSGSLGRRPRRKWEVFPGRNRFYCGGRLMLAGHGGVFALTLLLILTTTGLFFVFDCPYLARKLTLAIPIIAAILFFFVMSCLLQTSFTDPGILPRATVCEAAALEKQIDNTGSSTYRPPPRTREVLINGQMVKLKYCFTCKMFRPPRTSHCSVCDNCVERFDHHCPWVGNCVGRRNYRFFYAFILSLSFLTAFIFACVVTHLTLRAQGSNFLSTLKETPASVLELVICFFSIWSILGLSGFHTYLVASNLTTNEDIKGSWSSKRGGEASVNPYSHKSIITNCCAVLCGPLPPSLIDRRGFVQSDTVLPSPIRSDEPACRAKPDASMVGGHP
UniProt Q8IZH2: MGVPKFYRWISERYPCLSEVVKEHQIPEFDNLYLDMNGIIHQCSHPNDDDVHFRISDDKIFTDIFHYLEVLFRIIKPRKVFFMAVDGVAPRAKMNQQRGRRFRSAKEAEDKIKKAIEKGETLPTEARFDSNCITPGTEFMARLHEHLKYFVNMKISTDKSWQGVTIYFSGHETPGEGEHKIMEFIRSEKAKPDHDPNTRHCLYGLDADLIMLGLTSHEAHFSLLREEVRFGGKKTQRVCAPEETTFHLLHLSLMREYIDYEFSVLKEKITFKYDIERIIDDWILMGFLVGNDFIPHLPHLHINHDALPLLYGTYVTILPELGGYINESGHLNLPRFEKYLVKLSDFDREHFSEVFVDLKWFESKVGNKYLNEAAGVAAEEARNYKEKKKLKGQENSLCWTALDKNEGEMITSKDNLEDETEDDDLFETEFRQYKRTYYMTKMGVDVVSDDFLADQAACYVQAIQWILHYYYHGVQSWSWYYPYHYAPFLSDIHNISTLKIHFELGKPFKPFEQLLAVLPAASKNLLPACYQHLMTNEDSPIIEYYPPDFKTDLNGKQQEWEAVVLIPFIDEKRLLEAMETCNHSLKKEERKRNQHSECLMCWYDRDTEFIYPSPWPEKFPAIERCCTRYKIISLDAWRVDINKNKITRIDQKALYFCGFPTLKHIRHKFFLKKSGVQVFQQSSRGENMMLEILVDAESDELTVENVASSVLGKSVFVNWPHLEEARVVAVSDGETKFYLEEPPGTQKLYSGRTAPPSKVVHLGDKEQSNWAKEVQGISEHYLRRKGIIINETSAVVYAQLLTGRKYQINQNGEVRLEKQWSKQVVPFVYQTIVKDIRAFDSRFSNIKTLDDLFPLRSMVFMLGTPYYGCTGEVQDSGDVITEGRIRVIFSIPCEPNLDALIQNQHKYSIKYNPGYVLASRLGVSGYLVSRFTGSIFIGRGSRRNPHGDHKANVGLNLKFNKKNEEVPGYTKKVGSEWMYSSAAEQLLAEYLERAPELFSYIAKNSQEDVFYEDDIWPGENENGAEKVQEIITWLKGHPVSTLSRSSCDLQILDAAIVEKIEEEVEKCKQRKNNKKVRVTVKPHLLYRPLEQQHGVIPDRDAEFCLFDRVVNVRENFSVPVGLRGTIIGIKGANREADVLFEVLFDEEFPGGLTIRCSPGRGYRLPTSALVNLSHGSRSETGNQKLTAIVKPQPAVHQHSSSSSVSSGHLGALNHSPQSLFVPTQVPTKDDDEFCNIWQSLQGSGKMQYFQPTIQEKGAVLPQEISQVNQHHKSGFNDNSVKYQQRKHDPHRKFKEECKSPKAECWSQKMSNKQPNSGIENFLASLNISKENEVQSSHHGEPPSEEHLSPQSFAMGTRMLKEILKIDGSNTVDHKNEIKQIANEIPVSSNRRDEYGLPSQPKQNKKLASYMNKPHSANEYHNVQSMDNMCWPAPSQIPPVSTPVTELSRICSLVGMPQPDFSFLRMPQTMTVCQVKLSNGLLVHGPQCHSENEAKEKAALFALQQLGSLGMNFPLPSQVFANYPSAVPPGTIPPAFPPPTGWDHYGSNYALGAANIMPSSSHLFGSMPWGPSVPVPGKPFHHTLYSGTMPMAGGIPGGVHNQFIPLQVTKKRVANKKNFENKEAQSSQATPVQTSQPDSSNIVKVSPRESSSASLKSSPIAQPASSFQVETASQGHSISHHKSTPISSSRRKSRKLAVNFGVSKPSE
UniProt O60315: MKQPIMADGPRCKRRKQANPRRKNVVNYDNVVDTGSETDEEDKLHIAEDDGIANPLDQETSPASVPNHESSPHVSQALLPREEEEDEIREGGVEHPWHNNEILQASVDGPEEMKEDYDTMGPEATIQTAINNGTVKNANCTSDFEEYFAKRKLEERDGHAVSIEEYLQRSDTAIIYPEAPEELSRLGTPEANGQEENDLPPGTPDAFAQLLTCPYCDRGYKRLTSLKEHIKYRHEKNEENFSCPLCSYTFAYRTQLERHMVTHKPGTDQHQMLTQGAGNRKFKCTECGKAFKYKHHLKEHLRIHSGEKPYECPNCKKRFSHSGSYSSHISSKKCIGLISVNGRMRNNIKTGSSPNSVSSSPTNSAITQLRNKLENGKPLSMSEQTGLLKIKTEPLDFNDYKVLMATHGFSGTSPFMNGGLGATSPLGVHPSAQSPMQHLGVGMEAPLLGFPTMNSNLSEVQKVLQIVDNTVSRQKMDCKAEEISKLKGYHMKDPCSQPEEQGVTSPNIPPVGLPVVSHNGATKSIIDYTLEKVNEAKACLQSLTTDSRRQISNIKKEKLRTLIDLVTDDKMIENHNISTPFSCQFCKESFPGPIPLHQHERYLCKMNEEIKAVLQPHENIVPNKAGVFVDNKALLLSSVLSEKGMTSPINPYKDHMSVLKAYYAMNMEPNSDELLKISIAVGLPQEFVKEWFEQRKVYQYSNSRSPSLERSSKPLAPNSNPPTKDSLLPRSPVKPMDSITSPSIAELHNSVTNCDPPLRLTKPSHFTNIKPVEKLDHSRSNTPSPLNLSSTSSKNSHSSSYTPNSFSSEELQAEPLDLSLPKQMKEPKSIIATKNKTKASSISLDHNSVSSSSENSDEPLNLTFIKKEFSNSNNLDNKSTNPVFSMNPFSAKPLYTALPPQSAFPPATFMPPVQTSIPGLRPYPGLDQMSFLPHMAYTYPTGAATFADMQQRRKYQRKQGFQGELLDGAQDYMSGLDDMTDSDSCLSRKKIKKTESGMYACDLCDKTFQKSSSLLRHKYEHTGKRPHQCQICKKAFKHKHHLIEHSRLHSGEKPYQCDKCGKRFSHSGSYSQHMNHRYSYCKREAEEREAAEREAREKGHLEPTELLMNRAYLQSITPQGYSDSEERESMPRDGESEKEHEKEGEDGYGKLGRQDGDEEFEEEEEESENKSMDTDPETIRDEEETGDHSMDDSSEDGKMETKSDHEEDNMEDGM
UniProt Q9UBH6: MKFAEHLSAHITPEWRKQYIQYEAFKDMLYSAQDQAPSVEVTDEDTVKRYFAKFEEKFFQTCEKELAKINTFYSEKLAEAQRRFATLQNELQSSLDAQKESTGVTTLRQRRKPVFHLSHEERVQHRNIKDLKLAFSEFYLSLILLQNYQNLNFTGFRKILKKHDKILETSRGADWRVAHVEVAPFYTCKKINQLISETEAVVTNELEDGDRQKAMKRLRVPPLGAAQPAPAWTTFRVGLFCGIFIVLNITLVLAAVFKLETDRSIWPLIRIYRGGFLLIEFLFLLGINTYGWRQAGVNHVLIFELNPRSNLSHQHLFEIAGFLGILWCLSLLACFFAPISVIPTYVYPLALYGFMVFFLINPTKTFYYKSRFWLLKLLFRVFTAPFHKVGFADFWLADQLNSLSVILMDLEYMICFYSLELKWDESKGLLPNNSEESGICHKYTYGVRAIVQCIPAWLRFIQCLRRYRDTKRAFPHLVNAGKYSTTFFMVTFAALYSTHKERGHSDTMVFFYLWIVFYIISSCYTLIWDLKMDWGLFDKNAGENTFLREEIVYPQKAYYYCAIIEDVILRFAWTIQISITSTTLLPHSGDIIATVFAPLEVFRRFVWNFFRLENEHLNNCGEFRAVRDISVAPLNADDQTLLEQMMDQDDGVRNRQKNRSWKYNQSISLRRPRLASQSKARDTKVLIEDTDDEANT
UniProt P62699: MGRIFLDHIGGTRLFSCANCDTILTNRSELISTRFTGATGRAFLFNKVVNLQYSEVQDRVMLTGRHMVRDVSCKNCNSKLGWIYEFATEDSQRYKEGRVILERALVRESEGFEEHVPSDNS
UniProt Q7Z3T8: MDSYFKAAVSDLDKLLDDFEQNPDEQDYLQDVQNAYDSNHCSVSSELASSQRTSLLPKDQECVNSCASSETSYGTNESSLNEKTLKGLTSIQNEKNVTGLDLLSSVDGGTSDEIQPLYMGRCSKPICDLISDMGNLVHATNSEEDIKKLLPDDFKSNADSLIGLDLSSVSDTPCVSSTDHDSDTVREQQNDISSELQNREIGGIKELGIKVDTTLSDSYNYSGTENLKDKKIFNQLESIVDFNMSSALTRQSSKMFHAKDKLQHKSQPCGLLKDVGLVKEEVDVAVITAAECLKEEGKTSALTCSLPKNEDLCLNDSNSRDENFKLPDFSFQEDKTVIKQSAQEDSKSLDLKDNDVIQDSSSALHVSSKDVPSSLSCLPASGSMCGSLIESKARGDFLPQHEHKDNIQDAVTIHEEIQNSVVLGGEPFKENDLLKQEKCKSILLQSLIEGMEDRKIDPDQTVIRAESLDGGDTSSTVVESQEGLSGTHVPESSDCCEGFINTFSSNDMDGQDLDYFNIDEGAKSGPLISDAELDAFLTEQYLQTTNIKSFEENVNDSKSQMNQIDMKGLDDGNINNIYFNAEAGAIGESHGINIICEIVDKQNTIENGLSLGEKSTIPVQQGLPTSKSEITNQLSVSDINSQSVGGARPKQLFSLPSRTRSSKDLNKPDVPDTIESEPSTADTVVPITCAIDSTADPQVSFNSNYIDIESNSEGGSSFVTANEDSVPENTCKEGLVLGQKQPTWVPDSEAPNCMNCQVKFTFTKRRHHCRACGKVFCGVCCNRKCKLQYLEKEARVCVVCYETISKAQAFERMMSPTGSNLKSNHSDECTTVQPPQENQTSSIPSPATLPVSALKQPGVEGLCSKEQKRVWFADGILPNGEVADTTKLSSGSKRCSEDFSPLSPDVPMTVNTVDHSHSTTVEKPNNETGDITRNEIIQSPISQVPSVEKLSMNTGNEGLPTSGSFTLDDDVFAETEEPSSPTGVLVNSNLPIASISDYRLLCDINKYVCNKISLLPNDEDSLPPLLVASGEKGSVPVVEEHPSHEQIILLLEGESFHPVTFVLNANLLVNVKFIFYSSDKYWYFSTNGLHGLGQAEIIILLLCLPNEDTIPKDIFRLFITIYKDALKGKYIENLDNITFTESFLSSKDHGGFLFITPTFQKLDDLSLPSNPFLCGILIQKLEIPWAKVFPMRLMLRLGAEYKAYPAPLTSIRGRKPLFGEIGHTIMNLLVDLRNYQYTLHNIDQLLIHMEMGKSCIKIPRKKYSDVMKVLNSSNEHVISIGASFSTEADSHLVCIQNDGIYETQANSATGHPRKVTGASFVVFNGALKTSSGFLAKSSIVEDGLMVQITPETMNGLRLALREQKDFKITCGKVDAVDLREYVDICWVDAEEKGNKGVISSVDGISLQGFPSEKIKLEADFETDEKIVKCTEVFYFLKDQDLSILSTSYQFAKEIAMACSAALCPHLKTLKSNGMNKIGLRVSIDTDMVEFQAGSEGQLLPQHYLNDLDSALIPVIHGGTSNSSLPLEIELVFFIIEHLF
UniProt Q9Y5A9: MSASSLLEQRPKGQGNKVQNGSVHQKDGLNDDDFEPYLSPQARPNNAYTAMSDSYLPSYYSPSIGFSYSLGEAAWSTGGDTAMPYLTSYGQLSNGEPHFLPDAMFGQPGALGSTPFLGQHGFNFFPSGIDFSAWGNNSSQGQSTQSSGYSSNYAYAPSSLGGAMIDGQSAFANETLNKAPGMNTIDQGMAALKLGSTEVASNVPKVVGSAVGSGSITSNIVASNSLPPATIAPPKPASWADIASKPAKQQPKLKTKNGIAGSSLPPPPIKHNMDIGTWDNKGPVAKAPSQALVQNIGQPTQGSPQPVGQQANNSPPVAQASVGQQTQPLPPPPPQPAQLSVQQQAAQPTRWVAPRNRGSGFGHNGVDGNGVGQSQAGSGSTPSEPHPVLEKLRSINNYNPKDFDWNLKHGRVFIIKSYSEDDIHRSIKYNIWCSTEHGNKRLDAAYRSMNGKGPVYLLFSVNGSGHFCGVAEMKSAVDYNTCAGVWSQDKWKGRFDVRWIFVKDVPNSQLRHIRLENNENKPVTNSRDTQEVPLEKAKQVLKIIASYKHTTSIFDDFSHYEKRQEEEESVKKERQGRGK

compound: CC1=C(C(CC(=O)N1)C2=CC=C(C=C2)C(F)(F)F)C(=O)NC3=C(C=C4C(=C3)C=NN4)F; assay: log2 fold change, soluble protein after heating vs DMSO (PISA); higher = thermal stabilisation; K562 lysate, 10 uM; active = over 0.2 and 3.5 SD of the protein, either way, in both replicates (recomputed)
Outline: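 Values give the log-two fold change in thermal stability against solvent controls, from duplicates. Crude K562 extract at 1 mg/mL protein, made by dounce homogenisation in PBS pH 7.4 with 1 mM MgCl2, was treated with 10 μM compound for 30 min. After 3 min heating across 48°C-58°C, aliquots were pooled, adjusted to 0.5% NP-40 at 4°C and centrifuged at 21,000xg for 90 min. The supernatant was measured by TMTpro 16plex LC-MS/MS with channel sums equalised.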

Row | Target | log2 fold change
1 | XRCC5 (UniProt P13010) | inactive: -0.019
2 | ZC3H7B (UniProt Q9UGR2) | inactive: 0.041
3 | YLPM1 (UniProt P49750) | active: 0.301
4 | ZFAND6 (UniProt Q6FIF0) | inactive: -0.016
5 | ZGPAT (UniProt Q8N5A5) | inactive: -0.013
6 | ZC3H13 (UniProt Q5T200) | inactive: -0.101
7 | YES1 (UniProt P07947) | inactive: 0.2
8 | YOD1 (UniProt Q5VVQ6) | inactive: 0.014
9 | YDJC (UniProt A8MPS7) | inactive: 0.052
10 | ZDHHC18 (UniProt Q9NUE0) | inactive: 0.019
11 | ZBTB14 (UniProt O43829) | inactive: 0.028
12 | XRN1 (UniProt Q8IZH2) | inactive: 0.026
13 | ZEB2 (UniProt O60315) | inactive: -0.018
14 | XPR1 (UniProt Q9UBH6) | inactive: 0.012
15 | YJU2 (UniProt Q9BW85) | inactive: 0.028
16 | YME1L1 (UniProt Q96TA2) | inactive: -0.04
17 | YPEL5 (UniProt P62699) | inactive: -0.012
18 | ZC3H18 (UniProt E7ERS3) | inactive: -0.008
19 | ZFYVE16 (UniProt Q7Z3T8) | inactive: -0.026
20 | ZFAND5 (UniProt O76080) | inactive: 0.031
21 | ZER1 (UniProt Q7Z7L7) | inactive: 0.034
22 | ZC2HC1A (UniProt Q96GY0) | inactive: -0.016
23 | YTHDF2 (UniProt Q9Y5A9) | inactive: 0.059
24 | YARS2 (UniProt Q9Y2Z4) | inactive: -0.04

Records 23 through 24, reprinted for reference:
Row | Target | log2 fold change
23 | YTHDF2 (UniProt Q9Y5A9) | inactive: 0.059
24 | YARS2 (UniProt Q9Y2Z4) | inactive: -0.04
